# Primary screen of a compound library

Chains of the proteins cited; added tags and fusions are not shown. Residues count along the entry.
UniProt P9WNZ1, whole entry: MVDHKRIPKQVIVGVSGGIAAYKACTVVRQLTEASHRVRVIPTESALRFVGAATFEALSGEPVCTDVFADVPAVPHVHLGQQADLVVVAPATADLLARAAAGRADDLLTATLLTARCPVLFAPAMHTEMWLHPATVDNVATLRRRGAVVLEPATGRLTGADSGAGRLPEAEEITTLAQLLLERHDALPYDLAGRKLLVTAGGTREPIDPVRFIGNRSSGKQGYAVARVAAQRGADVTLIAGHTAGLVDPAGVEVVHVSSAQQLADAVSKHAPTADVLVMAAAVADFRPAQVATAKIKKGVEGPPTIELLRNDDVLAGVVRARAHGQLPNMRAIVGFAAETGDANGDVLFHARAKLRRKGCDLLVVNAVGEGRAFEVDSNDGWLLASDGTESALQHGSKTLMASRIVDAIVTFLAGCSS
UniProt P9WFT3, whole entry: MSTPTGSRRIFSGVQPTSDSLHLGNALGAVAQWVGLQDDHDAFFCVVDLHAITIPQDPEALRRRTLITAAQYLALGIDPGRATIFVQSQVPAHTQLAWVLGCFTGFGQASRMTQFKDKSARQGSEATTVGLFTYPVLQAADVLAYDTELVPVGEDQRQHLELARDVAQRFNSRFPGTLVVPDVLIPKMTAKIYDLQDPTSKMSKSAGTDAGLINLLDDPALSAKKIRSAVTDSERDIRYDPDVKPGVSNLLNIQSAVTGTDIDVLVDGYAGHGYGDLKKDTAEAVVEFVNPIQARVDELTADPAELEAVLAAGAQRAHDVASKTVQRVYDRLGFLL
UniProt A4I591, 1-473: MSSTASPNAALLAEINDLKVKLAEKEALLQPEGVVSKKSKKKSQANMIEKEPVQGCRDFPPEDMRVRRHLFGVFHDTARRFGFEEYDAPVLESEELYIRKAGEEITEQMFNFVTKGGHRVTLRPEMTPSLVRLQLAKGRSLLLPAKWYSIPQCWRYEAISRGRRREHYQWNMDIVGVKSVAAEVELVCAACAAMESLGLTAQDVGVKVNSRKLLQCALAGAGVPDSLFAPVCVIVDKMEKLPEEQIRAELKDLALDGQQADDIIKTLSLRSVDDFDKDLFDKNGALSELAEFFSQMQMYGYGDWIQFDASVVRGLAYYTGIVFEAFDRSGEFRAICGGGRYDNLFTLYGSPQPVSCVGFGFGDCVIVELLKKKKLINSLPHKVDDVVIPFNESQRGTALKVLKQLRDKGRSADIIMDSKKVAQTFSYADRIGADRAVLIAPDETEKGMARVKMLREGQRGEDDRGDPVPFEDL

CoaBC: 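Enzyme assay of CoaBC with a phosphate dye (Biomol Green) read at 650 nm. Target: Coenzyme A biosynthesis protein CoaBC, Mycobacterium tuberculosis (UniProt P9WNZ1). Compounds at 30 µM. Higher reads as stronger inhibition, judged from the few compounds that gave an IC50. Most strong results did not repeat in a second test. Of about 67,000 compounds tested this way, about 40 (0.06%) reached 50% or more in at least one test.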
Toxoplasma: 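Assay of Toxoplasma gondii numbers, read through their beta-galactosidase reporter with a colour substrate. Tested at 10 µM. Higher reads as fewer parasites (inferred from which compounds were picked for retests). Of about 67,000 compounds tested this way, about 260 (0.38%) reached 50% or more in at least one test.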
Leishmania in macrophages: 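Cell assay of Leishmania donovani living inside macrophages; the read-out is not stated. Compounds at 30 µM. Higher reads as stronger inhibition (inferred: compounds with an IC50 in retests scored well above the rest). Of about 69,000 compounds tested this way, about 1,000 (1.5%) reached 50% or more in at least one test.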
MtTrpRS: 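Tryptophan-tRNA ligase, Mycobacterium tuberculosis (UniProt P9WFT3). Enzyme assay of tryptophanyl-tRNA synthetase; the read-out is not stated. Compounds at 10 µM. Direction is not recorded; retested compounds ran higher, which suggests that high means inhibition. Of about 65,000 compounds tested this way, about 64 (0.098%) reached 50% or more in at least one test.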
LiHisRS: 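Enzyme assay of histidyl-tRNA synthetase; the read-out is not stated. Target: Histidine-tRNA ligase, Leishmania infantum (UniProt A4I591). Concentration: 30 µM. Direction is inferred from retests: higher values go with stronger inhibition. The assay is labelled LdHisRS but filed under L. infantum. Size under these conditions: about 69,000 compounds, about 410 of them at 50% or above in at least one test.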

Values are the deposited “Percent Effect”, in %. The controls that fix the scale are not given in the record; negative values are as filed. Compounds were drawn at random from those tested, without regard to their results. Two or more numbers in one place are separate tests of the same structure; such repeats can differ widely. A dash means the value is not listed here; it may have been measured.

compound	CoaBC	Toxoplasma	Leishmania in macrophages	MtTrpRS	LiHisRS
O=C(c1ccsc1)N1C[C@@H](CN2CCCC2)[C@@H](CO)C1	-6.696	-1.322	8.861	-0.5329	-0.9709
COc1ccc(F)c(F)c1CN1CCC2(CC1)[C@H](O)C[C@@H]2OCCN	6.273	-	35.99	-2.342	17.74
O=c1[nH]c2c(c(=O)n1C1CCCCC1)CCC2Nc1ccc(Cl)cc1 (stereo not given)	2.02	-26.06	19.66	-2.451	-10.53
O=C(O)C(F)(F)F.[H][C@@]12COC[C@@H](CC(=O)N3CCCC3)[C@]1([H])CN(C(=O)c1cccnc1)C2	-	-26.36	7.421	-	-
CCc1nc(C)cc(N2CCN(C(=O)[C@@H]3C[C@@H]4C=C[C@H]3C4)CC2)n1	2.184	-	-	-2.326	12.86
NCc1cnn(-c2ccccc2C(=O)NCCCn2ccnc2)c1	-6.389	-0.3203	-1.344	6.104	16.67
Cc1oc(C(=O)O)cc1S(=O)(=O)Nc1c(F)cccc1-n1cccn1	-6.25	7.709	25.19	-3.908	20.39
COCc1noc(-c2ccc(N(C)Cc3cc(C)no3)nc2)n1	-0.6397	-0.9233	-13.04	-1.471	11.54
O=C1CCC(C(=O)Nc2ccc(=O)n(Cc3ccccc3Cl)c2)N1 (stereo not given)	2.658	-27.1	-11.67	0.8158	20.48
CC(NC(=O)c1cc(Br)c2c(c1)OCCO2)C(N)=O (stereo not given)	4.824	2.171	-20.24	1.943	22.97
COc1ccc(Cl)cc1NCc1cc(C)on1	2.632	-0.3912	18.87	-3.075	15.74
O=C(CCc1ccccc1Br)NS(=O)(=O)c1ccc2c(c1)OCCO2	-6.489	-13.1	25.97	-1.789	2.609
Cc1cccc(CNCc2ccc(NC(=O)NC(C)C)cc2)c1	-5.898	7.446	0.1841	-0.3975	15.38
CC(=O)N1CC2(CCN(C(=O)c3ccc4c(c3)OCCO4)CC2)C1	-1.272	-0.622	-8.789	40.66	1.942
O=C(O)C(F)(F)F.[H][C@@]12CN(CC3CCOCC3)C[C@]1([H])C(=O)N(c1ccsc1)C2	-	0.2391	2.026	-	-
O=C(CCCn1cncn1)NC1(c2ccc(Cl)cc2)CCC1	2.071	-5.789	-4.349	5.583	22.58
COCCC(C)NC(=O)Nc1ccc(N2CCOC2=O)c(OC)c1 (stereo not given)	3.719	3.609	26.49	-1.064	5.333
CCc1nc(CNc2nc3c(s2)c(C)nn3C)cs1	8.411	11.35	49.59	-3.144	14.47
CCCc1nnc(NCCc2noc(C3CCCC3)n2)o1	-3.373	26.99	4.018	-4.337	-5.495
Cc1cnn(C2CCCN(C(=O)c3ccn(C)c(=O)c3)C2)c1 (stereo not given)	8.974	-9.746	7.317	0.5473	13.33
COc1cccc(Nc2nc(C3CCNCC3)c3ccccn23)c1	9.33	-	-	1.172	31.65
Cc1noc(C)c1C(=O)NCCc1cccs1	-0.9724	2.891	-11.62	4.873	20.63
O=C(c1cccc(F)c1)N1CCC2(CC1)CN(c1ccccn1)CCO2	9.533	-	-	1.91	15.6
Cn1c(C(F)(F)F)nn(CCNC(=O)Nc2ccccc2F)c1=O	2.622	-3.846	10.4	1.095	9.917
CN(C)c1ccc(C(=O)N2CCN(Cc3cscn3)CC2)cc1F	1.845	1.557	15.81	4.329	25
O=C(O)CN(Cc1ccsc1)CC1CCCO1 (stereo not given)	-4.084	5.588	3.656	1.354	11.67
O=C(N1CCCCC1)N1CCN(c2ccc(Cl)nn2)C(=O)C1	1.579	-7.249	0.3503	-4.235	0
CSCC(=O)N1CCCC1c1noc(C2CC2)n1 (stereo not given)	0	-3.304	3.968	-3.197	8.738
CC(=O)Nc1nc(C(=O)N2CCCC(n3cncn3)C2)cs1 (stereo not given)	4.348	-20.02	-10.55	1.94	8.772
Cn1cc(C(=O)N2CCCC(Cc3cnccn3)C2)cn1 (stereo not given)	2.048	16.99	4.924 & 14.09	-	5.714
Cc1ncsc1-c1nnc(C2CCN(Cc3ccc(F)cc3)CC2)o1	6.944	8.776	-8.442	1.254	-66.67
CCN(CC1CCOC1)C(=O)c1cc(Cl)c2c(c1)OCO2 (stereo not given)	-0.9926	-2.136	-32.26	0.5711	-2.128
O=C(NCC1CCOC1)Nc1ccc(OCC(F)(F)F)nc1 (stereo not given)	2.85	-13.31	24.28	-0.2227	2.128
CC(C)CCN1CC2(CCCN(C(=O)c3cscn3)C2)CCC1=O (stereo not given)	0.9091	4.772	9.455	3.894	19.81
O=C(N1CCC(Oc2ccncc2)C1)C1(c2cccc(F)c2)CC1 (stereo not given)	-0.2445	4.06	-34.84	-0.2981	0
Cc1nc(CNC2CCN(Cc3ccccc3)C2)sc1C (stereo not given)	-3.567	-	36.81	-2.2	6.452
CN1CCCCC[C@@H]2[C@@H]1[C@H](c1ccccc1)CN2C(=O)c1ccccn1	0.4902	-	-	-	19.79
O=C(c1cc(C2CCCC2)no1)N1CC(O)C1	15.62	9.94	15.44	-5.421	12.36
Cn1nccc1-c1ncc2c(c1C(=O)O)CCN(Cc1ccncc1)C2.O=C(O)C(F)(F)F.O=C(O)C(F)(F)F	-	-13.92	-3.226	-	-
O=C(Cc1cccc(F)c1)N1CCn2cc(Cn3cccn3)nc2C1	4	-	-	0.3127	12
O=C(O)C(F)(F)F.O=C(O)C(F)(F)F.O=C(O)C(F)(F)F.c1ccc(CN2CC[C@]3(C[C@@H](Oc4ccccn4)CO3)C2)nc1	-	-0.9429	8.836	-	-
COCc1ncn2c1CN(C(=O)c1cccc3cccnc13)CC2	-1.235	-	-	3.902	16.67

The values are deposited in ChEMBL (CHEMBL3988442, “University of Dundee, Small-Polar-MMV Screening Library” (2021)).